PubChem BioAssay AID1224830 | NIAID, 2016
Aim: 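Host factors that control LPS-induced TNF expression in human macrophages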 (primary screen). Cell system: human THP-1 monocytic leukaemia cells, TNF dual-luciferase reporter clone, PMA-differentiated to macrophage-like cells. Reagent: siRNA pool against human genes, 50 nM. Duration: LPS for 4 h, given about 3 days after siRNA transfection. Challenge: bacterial LPS (TLR4 ligand), 10 ng/ml. Read-out: 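Ratio of firefly to renilla light, scaled to the plate median and expressed as a robust z-score per replicate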. Direction: TNF reporter robust z-score: higher = stronger TNF reporter response to LPS. Rule for the call: 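Each well counts as active if its z-score is over 2.8 or under -1.5; controls are left without a call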.
Here is an unselected part of about 18,000 reagents tested. Of all reagents, about 2,900 (16%) got an active call. 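Calls are made per well; low scores hint the gene aids the LPS response, high scores that it dampens it.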 Repeated entries: four replicate wells of each siRNA pool.

| target gene | TNF reporter robust z-score | activity call |
| --- | --- | --- |
| FADS6 | -0.96 | inactive |
| FADS6 | 0.12 | inactive |
| FADS6 | -0.37 | inactive |
| FADS6 | -0.28 | inactive |
| APP | -0.69 | inactive |
| APP | -1.26 | inactive |
| APP | 3.51 | active |
| APP | -0.48 | inactive |
| PRX | 5.44 | active |
| PRX | 4.43 | active |
| PRX | 2.28 | inactive |
| PRX | -0.87 | inactive |
| NPTXR | 2.64 | inactive |
| NPTXR | 2.1 | inactive |
| NPTXR | 0.79 | inactive |
| NPTXR | 1.08 | inactive |
| CPSF6 | -0.3 | inactive |
| CPSF6 | 0.26 | inactive |
| CPSF6 | -0.67 | inactive |
| CPSF6 | -0.09 | inactive |
| EMC4 | -0.97 | inactive |
| EMC4 | -0.77 | inactive |
| EMC4 | -1.03 | inactive |
| EMC4 | -0.79 | inactive |
| DNER | -0.12 | inactive |
| DNER | 0.8 | inactive |
| DNER | -0.34 | inactive |
| DNER | 0.3 | inactive |
| SNCG | 1.74 | inactive |
| SNCG | 1.49 | inactive |
| SNCG | 3.2 | active |
| SNCG | 1.3 | inactive |
| SNTA1 | -0.07 | inactive |
| SNTA1 | -0.06 | inactive |
| SNTA1 | -0.79 | inactive |
| SNTA1 | 0.09 | inactive |
| SLC27A6 | 0.61 | inactive |
| SLC27A6 | 0.04 | inactive |
| SLC27A6 | 0.69 | inactive |
| SLC27A6 | 0.72 | inactive |
| PJA1 | 1.72 | inactive |
| PJA1 | 4.74 | active |
| PJA1 | 0.64 | inactive |
| PJA1 | 0.55 | inactive |
| OR10W1 | -1.53 | active |
| OR10W1 | -1.14 | inactive |
| OR10W1 | -1.31 | inactive |
| OR10W1 | -0.91 | inactive |
| TAP1 | -0.67 | inactive |
| TAP1 | -1.32 | inactive |
| TAP1 | -0.86 | inactive |
| TAP1 | -0.38 | inactive |
| GRID2 | 0.13 | inactive |
| GRID2 | 1.36 | inactive |
| GRID2 | 1.43 | inactive |
| GRID2 | 2.05 | inactive |
| IFNA10 | 1.93 | inactive |
| IFNA10 | 0.92 | inactive |
| IFNA10 | 0.42 | inactive |
| IFNA10 | 0.16 | inactive |
| LAG3 | -0.44 | inactive |
| LAG3 | -0.29 | inactive |
| LAG3 | -0.89 | inactive |
| LAG3 | -0.14 | inactive |
| ACAD11 | 1.11 | inactive |
| ACAD11 | 1 | inactive |
| ACAD11 | 0.77 | inactive |
| ACAD11 | 0.72 | inactive |
| ENC1 | 0.05 | inactive |
| ENC1 | 0.91 | inactive |
| ENC1 | -0.48 | inactive |
| ENC1 | 1.31 | inactive |
| ZNF688 | -0.89 | inactive |
| ZNF688 | -1.14 | inactive |
| ZNF688 | -1.09 | inactive |
| ZNF688 | -1 | inactive |
| PANX2 | – | inactive |
| PANX2 | -0.01 | inactive |
| PANX2 | 0.48 | inactive |
| PANX2 | -0.37 | inactive |
| TMEM26 | 0.14 | inactive |
| TMEM26 | -0.48 | inactive |
| TMEM26 | -0.86 | inactive |
| TMEM26 | 2.16 | inactive |
| USP9X | -0.48 | inactive |
| USP9X | -0.37 | inactive |
| USP9X | -0.47 | inactive |
| USP9X | -0.04 | inactive |
| CDCA4 | -0.36 | inactive |
| CDCA4 | -0.23 | inactive |
| CDCA4 | -0.12 | inactive |
| CDCA4 | 0.15 | inactive |
| CHST5 | -0.7 | inactive |
| CHST5 | -0.62 | inactive |
| CHST5 | 1.16 | inactive |
| CHST5 | 1.86 | inactive |
| STX1B | -0.93 | inactive |
| STX1B | -1.08 | inactive |
| STX1B | -0.95 | inactive |
| STX1B | -1.62 | active |
| NEB | 0.15 | inactive |
| NEB | 1.05 | inactive |
| NEB | 0.47 | inactive |
| NEB | 1.68 | inactive |
| PTGFR | 0.34 | inactive |
| PTGFR | 0.25 | inactive |
| PTGFR | -0.27 | inactive |
| PTGFR | 1.37 | inactive |
| ZNF585A | 0.2 | inactive |
| ZNF585A | 1.13 | inactive |
| ZNF585A | 0.82 | inactive |
| ZNF585A | -0.31 | inactive |
